# Experimental data from PubChem BioAssay AID504834 (National Center for Advancing Translational Sciences (NCATS), 2011).
# Several values for one entry are separate records, joined by “and”; a condition that tells them apart may be missing. Identical values can stand only once. The campaign covered roughly 320,000 compounds. About 22,000 (6.9%) were called active. This list was built around the results that the source calls inconclusive (neither active nor inactive); the mix of calls is not that of the screen. The call rests on the fitted dose curve; in most records, active means well fitted inhibition curve with a large enough effect; inconclusive means small, poorly fitted or top-dose-only effect, or another doubt; inactive means no such curve, though single readings can be large or run the other way. Potencies of inconclusive entries are doubtful fits and often do not repeat.
# Assay: Primary qHTS for delayed death inhibitors of the malarial parasite plastid, 96 hour incubation
# Settings: P. falciparum luciferase reporter growth; series mostly up to 28.7 µM
# Summary of the method: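 Luminescence readout: decreased luciferase signal marks inhibited growth of reporter-expressing P. falciparum in infected red cells (2% hematocrit, 0.05% parasitemia final), exposed to compound two generations (96 h, 37 C, 5% CO2).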
# Potency means the concentration at half of the fitted maximal effect.
row,SMILES,Potency
1,CCC(C)N(C(=O)Cn1nnc2ccccc21)C(C(=O)NCc1ccco1)c1cccc(OC)c1 (configuration not stated),active: 10.4 µM
2,O=C(NC1CCS(=O)(=O)C1)c1ccc(-c2ccc(Br)cc2)o1 (configuration not stated),"inconclusive: 0.0928 µM [inhibitor, partial curve, poor fit]"
3,Cn1c(=O)c(C(=O)Nc2ncccc2O)c(O)c2ccccc21,"inconclusive: 8.28 µM [inhibitor, single point]"
4,N#Cc1ccc(Oc2cccnc2)cc1C#N,"inconclusive: 18.5 µM [inhibitor, single point]"
5,CC(=O)N1CCN(C(=O)CSc2cc(C)c(Br)cc2C)CC1,inactive
6,COc1ccccc1NS(=O)(=O)c1cccc(C(=O)N/N=C(\C)c2ccc3c(c2)OCCO3)c1,"inconclusive: 9.28 µM [inhibitor, single point]"
7,CCCc1nc2ccccc2c(=O)n1/N=C/c1ccc(O)cc1,"inconclusive: 2.33 µM [inhibitor, full curve, poor fit]"
8,CCOc1cccc(/C=C/c2cc(C(=O)O)c3ccccc3n2)c1OC,inactive
9,CCOc1ccc(S(=O)(=O)N2CCC(C(=O)Nc3cc(S(C)(=O)=O)ccc3Cl)CC2)cc1,"inconclusive: 16.5 µM [inhibitor, single point]"
10,Nc1nc(COC(=O)C2CC(=O)N(Cc3ccccc3Cl)C2)nc(Nc2ccccc2)n1 (configuration not stated),inactive
11,O=C1CCN(Cc2ccccc2)CCN1[C@H](CO)c1ccccc1,inactive
12,CCn1cc(C(=O)NNC(=O)c2ccc(Cl)cc2)c(=O)c2ccc(C)nc21,inactive
13,CCCN(CCC)S(=O)(=O)c1ccc(C(=O)N2CC3CCC(CC3)C2)cc1,"inconclusive: 3.7 µM [inhibitor, partial curve]"
14,Cc1ccc(-c2nc3ccccc3o2)cc1NC(=S)NC(=O)/C=C/c1ccco1,"inconclusive: 8.28 µM [inhibitor, partial curve, poor fit]"
15,COc1ccc(N2CC(C(=O)N3CCC(c4nc5ccccc5[nH]4)CC3)CC2=O)cc1 (configuration not stated),"inconclusive: 5.22 µM [inhibitor, partial curve]"
16,OC1=C(O)c2nc3ccccc3nc21,"inconclusive: 18.5 µM [inhibitor, single point]"
17,Cn1c(=O)n(Cc2ccc(F)cc2)c(=O)c2c1nc1n2CCN1Cc1ccco1,"inconclusive: 5.86 µM [inhibitor, partial curve]"
18,Cc1c(Cl)cccc1NC(=O)CNC(=O)c1ccccc1F,inactive
19,Cc1c(Cn2ccnc2)c2ccccc2n1CCC(=O)O,"inconclusive: 4.78 µM [inhibitor, partial curve, poor fit]"
20,Cc1ccc(Sc2nc(-c3ccccc3)nnc2C(F)(F)F)cc1,inactive
21,CC(=O)N1CCC2(CC1)C(C#N)=C(N)Oc1n[nH]c(C(F)(F)F)c12,inactive
22,Cc1nc(C(=O)NNC(=O)c2ccc(Cl)cc2)cs1,"inconclusive: 18.5 µM [inhibitor, single point]"
23,Cc1cc(OCC(=O)NCc2cccnc2)c2c(C)c(C)c(=O)oc2c1,"inconclusive: 18.5 µM [inhibitor, single point]"
24,NC(=O)CC(NC(=O)c1ccccc1)c1ccc(NCc2ccc(F)c(F)c2)c([N+](=O)[O-])c1 (configuration not stated),"inconclusive: 0.0026 µM [inhibitor, full curve, poor fit]"

row,SMILES,Potency
1,Cc1cccc(N2C(=O)C(Oc3ccc(Cl)cc3Cl)C2C(=O)O)c1C (configuration not stated),active: 10.4 µM
2,O=C(/C(=C/O)N=Nc1ccccc1)c1cccs1,inactive
3,CCOC(=O)CSc1nc2sc3c(c2c(=O)n1-c1ccc(OCC)cc1)CCN(C)C3,active: 0.738 µM
4,O=C(c1ccc2oc(CCc3ccccc3)nc2c1)N1CC[C@H](O)C1,active: 7.38 µM
5,COc1cc(C(=O)Nc2cccc3cccnc23)cc(OC)c1OC,"inconclusive: 9.28 µM [inhibitor, partial curve, poor fit]"
6,CCn1c(-c2ccccc2O)n[nH]c1=S,inactive
7,COc1ccc2cc(C(c3nnnn3Cc3ccccc3)N3CCCCCC3)c(=O)[nH]c2c1 (configuration not stated),"inconclusive: 13.1 µM [inhibitor, single point]"
8,CC(=O)Nc1ccc(S(=O)(=O)N2CCN(C(=O)c3ccco3)CC2)cc1,"inconclusive: 18.5 µM [inhibitor, single point]"
9,Cc1ccc(-c2nc(C#N)c(NCC3CCCO3)o2)cc1 (configuration not stated),inactive
10,Cc1cc(C)cc(OCC(=O)N2N=C(c3cccnc3)CC2(O)C(F)(F)F)c1 (configuration not stated),"inconclusive: 10.4 µM [inhibitor, single point]"
11,O=C(NN=C1CCCC1)c1ccccc1OCc1ccc(Cl)cc1,"inconclusive: 11.7 µM [inhibitor, single point]"
12,CCCN1C(=O)c2cc(C(=O)NCCc3cccc(C)c3)ccc2C1O (configuration not stated),"inconclusive: 10.4 µM [inhibitor, single point]"
13,O=C(Nc1ccnc(-c2cccnc2)n1)c1ccc(Cl)cc1,"inconclusive: 2.08 µM [inhibitor, full curve, poor fit]"
14,COc1ccc2c(c1)C(=O)CC(c1ccc(OC)c(OC)c1)O2 (configuration not stated),"inconclusive: 18.5 µM [inhibitor, single point]"
15,O=C(CNC1CCCCCC1)Nc1ccc(N2CCCC2)cc1,inactive
16,Cc1ccc(NC(=O)CN(C)CC(=O)Nc2ccccc2-c2ccccc2)cc1,active: 13.1 µM
17,CN1CCCC(CN2c3ccccc3Sc3ccccc32)C1 (configuration not stated),"inconclusive: 13.5 µM [inhibitor, single point] and inconclusive: 23.3 nM [inhibitor, full curve, poor fit]"
18,COCCNC(C)C(=O)Nc1ccc(Br)cc1 (configuration not stated),"inconclusive: 13.1 µM [inhibitor, single point]"
19,O=C(NCC(c1ccco1)N1CCCC1)c1cn(-c2ccccc2)nc1-c1ccc(F)cc1 (configuration not stated),active: 8.28 µM
20,CN1CCN(c2ccc(C(F)(F)F)cc2NC(=O)Nc2ccccc2)CC1,active: 1.47 µM
21,CC1CN=C(N(C(=O)Nc2ccccc2)C(C)C)S1 (configuration not stated),"inconclusive: 18.5 µM [inhibitor, single point]"
22,O=C(NCCN1CCOCC1)c1cc(S(=O)(=O)NCCCN2CCCC2=O)ccc1Cl,inactive
23,CCC(c1nnnn1C1CCCCC1)N1CCN(C2CCCC2)CC1 (configuration not stated),inactive
24,CCC(C(=O)NC(C)(C)C)N(Cc1ccco1)C(=O)Cn1nnc(-c2ccc(F)cc2)n1 (configuration not stated),inactive

row,SMILES,Potency
1,Cc1ccc(-c2nc3ccccc3s2)cc1NC(=O)c1ccc2c(c1)OCO2,inactive
2,COc1cc(CSc2ncn[nH]2)c(OC)cc1CSc1ncn[nH]1,active: 13.1 µM
3,Cc1cc2cc(C(c3nnnn3CC3CCCO3)N3CCCc4ccccc43)c(=O)[nH]c2cc1C (configuration not stated),inactive
4,CC(Oc1cccc(Br)c1)C(=O)NNC(=O)CCNC(=O)c1ccccc1Cl (configuration not stated),inactive
5,CCOC(=O)C1(CC2CC2)CCN(C(=O)c2cc(C3CC3)nc3ccccc23)CC1,"inconclusive: 18.5 µM [inhibitor, single point]"
6,COc1ccc(C(=O)NCc2ccc3[nH]c(C)cc3c2)cc1OC,"inconclusive: 18.5 µM [inhibitor, single point]"
7,COc1ccc(-c2nnn(CC(=O)N(Cc3ccccc3Cl)C(C(=O)NCC3CCCO3)c3ccco3)n2)cc1 (configuration not stated),"inconclusive: 2.33 µM [inhibitor, full curve, poor fit]"
8,O=C(CN1C(=O)NC2(CCCCCCC2)C1=O)Nc1ccc(Br)cc1Br,inactive
9,CC[C@@H](C)[C@H](CN[C@H](CNC)[C@@H](C)O)NCCc1ccc(OC)cc1,"inconclusive: 11.7 µM [inhibitor, single point]"
10,Cc1sc(NC(=O)Cc2ccc3c(c2)OCO3)nc1-c1ccc2c(c1)CCN2C(=O)c1cccc(F)c1,active: 6.57 µM
11,Cc1nnc(NC(=O)c2cccc(F)c2)s1,"inconclusive: 18.5 µM [inhibitor, single point]"
12,Cc1cccc(N=Nc2c(C)[nH]n(C(N)=S)c2=O)c1C,inactive
13,COC(=O)CCCC1=CC2=CC(=O)C(C)(OC(=O)c3cccs3)C(=O)C2=CN1C1CCCCC1 (configuration not stated),"inconclusive: 0.147 µM [inhibitor, full curve, poor fit]"
14,COc1cc(-c2nc3n(n2)C(c2ccncc2)C2=C(CCCC2=O)N3)cc(OC)c1OC (configuration not stated),"inconclusive: 16.5 µM [inhibitor, single point]"
15,COc1cc(/C=N/Nc2ccc(C(=O)O)cc2)cc(OC)c1OC,inactive
16,O=C(OC(C(=O)NCc1ccc2c(c1)OCO2)c1ccncc1)c1ccc(Cl)nc1 (configuration not stated),inactive
17,O=C(C(=O)N1CCCCC1)c1c(-c2ccccc2)[nH]c2ccccc12,"inconclusive: 5.22 µM [inhibitor, partial curve, poor fit]"
18,[O-][n+]1ccccc1SC/C=C/c1ccccc1,"inconclusive: 11.7 µM [inhibitor, single point]"
19,NC(=S)N/N=C/c1cn(-c2ccccc2)nc1-c1cccnc1,"inconclusive: 11.7 µM [inhibitor, single point]"
20,O=C(Nn1c(C2CCCCC2)nc2ccccc2c1=O)c1ccc([N+](=O)[O-])cc1,"inconclusive: 4.65 µM [inhibitor, single point]"
21,CCn1c2ccccc2c2cc(/C=N/NC(=O)c3ccccc3C)ccc21,inactive
22,CCOC(=O)N1CCC(NS(=O)(=O)c2cc(Br)cnc2N)CC1,"inconclusive: 0.415 µM [inhibitor, full curve, poor fit]"
23,Cc1nc(Nc2ccccc2F)c2oc3ccccc3c2n1,inactive
24,CN(c1ccccc1)S(=O)(=O)c1ccc(C(=O)OCC(=O)NC(N)=O)cc1,inactive
